Reference: patent US4087390A (Eli Lilly and Company, priority 1977, dated 1978)
Some peptides are written in HELM: one residue between dots, names in brackets for other building blocks, links after the first $.

Assay: general procedure: Boc solid-phase peptide synthesis; chloromethylated resin or hydroxymethyl resin

## PEPTIDE1{A.[dV].C.K.N.F.F.[dW].K.T.F.T.S.C}$PEPTIDE1,PEPTIDE1,3:R3-14:R3$$$V2.0
Oxidative folding step, from reduced form
  oxidative folding yield: 31.6%
Purification step
  step yield: 88.5% recovery
Whole synthesis
  isolated yield: 25.7%
